Several values for one entry are separate records, joined by “and”; a condition that tells them apart may be missing. Equal values may be shown once. The shares of active, inactive and inconclusive entries below differ from those in the screen. Potencies beside an inconclusive call are fits to weak or partial responses and may not hold up. Activity calls are given as the source filed them. The calls were made as follows: active = hit-call score of the fitted dose curve at least 0.9, where 1 is the maximum; inconclusive = response in the unintended direction; inactive = score below 0.9.
What was measured:
[1] = ATG_M_32_TRANS: Attagene TRANS-FACTORIAL HepG2 Assay for M32 Transcription Factor (Internal Marker) (AID 2282984); settings: HepG2 Attagene TRANS M32 internal marker reporter
How it was run: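 Internal-marker readout from a multiplexed transcription reporter panel. HepG2 cells were transfected with GAL4-UAS reporter units, treated 24 hours, and reporter transcript levels determined by fluorescence after RT-PCR and capillary separation.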

Sequences of proteins named here, by UniProt entry; tags and fusion partners are left off. A change or cut given only in a name is not applied to a line headed by its entry.
UniProt P10827: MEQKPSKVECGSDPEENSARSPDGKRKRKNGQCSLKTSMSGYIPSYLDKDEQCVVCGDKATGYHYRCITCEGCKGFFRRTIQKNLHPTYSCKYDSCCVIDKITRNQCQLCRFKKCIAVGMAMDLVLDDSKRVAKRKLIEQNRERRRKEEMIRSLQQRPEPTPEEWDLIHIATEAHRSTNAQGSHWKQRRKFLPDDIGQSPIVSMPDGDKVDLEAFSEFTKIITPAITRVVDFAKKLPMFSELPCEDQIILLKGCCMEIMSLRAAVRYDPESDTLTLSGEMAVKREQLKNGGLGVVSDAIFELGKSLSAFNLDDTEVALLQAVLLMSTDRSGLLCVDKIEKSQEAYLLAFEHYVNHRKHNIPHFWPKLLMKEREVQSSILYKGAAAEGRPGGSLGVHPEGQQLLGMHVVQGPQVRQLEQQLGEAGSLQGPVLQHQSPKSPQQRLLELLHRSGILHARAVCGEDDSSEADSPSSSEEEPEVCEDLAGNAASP
UniProt P11473: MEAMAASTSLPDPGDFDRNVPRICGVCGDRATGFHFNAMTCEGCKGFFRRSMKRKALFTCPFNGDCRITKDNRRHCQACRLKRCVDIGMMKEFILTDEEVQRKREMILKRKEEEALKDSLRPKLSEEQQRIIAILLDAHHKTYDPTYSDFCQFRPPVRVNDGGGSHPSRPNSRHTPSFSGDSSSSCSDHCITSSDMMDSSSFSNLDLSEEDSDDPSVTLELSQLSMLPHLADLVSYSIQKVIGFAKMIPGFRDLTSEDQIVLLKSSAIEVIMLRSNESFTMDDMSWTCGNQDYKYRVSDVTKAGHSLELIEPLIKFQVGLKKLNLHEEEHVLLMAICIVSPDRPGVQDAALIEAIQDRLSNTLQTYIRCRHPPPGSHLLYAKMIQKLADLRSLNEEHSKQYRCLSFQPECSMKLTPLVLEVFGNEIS
UniProt P04637, whole entry, looked up: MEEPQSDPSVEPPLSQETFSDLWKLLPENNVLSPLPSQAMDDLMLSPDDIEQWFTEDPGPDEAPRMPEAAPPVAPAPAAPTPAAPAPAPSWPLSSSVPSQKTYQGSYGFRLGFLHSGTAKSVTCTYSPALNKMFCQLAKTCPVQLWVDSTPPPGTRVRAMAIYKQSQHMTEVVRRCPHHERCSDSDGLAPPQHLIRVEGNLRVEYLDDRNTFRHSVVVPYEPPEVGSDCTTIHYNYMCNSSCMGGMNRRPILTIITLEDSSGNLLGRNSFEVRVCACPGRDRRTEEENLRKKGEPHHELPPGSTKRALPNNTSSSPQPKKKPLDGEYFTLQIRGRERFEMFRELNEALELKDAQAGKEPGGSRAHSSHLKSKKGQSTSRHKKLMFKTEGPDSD
UniProt Q03181: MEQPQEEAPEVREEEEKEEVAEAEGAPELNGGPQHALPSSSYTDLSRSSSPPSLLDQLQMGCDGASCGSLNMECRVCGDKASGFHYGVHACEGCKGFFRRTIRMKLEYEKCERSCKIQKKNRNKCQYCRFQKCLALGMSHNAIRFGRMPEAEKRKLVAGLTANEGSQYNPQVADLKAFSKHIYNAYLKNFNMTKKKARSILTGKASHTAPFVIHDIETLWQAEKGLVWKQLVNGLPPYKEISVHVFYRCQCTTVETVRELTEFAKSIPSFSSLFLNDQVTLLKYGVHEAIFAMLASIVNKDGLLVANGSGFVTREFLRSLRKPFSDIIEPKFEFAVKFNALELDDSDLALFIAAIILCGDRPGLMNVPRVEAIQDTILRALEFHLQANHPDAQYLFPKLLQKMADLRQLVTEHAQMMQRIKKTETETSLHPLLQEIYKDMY
UniProt P19793: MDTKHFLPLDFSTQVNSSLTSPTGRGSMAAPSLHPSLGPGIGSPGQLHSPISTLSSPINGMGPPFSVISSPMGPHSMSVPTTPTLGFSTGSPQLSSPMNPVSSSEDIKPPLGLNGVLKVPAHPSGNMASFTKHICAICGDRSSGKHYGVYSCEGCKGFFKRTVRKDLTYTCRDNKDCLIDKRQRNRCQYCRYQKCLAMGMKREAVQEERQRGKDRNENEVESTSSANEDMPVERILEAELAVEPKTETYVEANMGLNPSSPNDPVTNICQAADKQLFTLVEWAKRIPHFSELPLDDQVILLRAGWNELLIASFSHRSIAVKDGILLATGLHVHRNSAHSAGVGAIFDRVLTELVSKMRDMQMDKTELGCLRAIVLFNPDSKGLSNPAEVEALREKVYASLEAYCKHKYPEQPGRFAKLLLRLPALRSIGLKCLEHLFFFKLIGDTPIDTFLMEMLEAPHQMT
UniProt P04406: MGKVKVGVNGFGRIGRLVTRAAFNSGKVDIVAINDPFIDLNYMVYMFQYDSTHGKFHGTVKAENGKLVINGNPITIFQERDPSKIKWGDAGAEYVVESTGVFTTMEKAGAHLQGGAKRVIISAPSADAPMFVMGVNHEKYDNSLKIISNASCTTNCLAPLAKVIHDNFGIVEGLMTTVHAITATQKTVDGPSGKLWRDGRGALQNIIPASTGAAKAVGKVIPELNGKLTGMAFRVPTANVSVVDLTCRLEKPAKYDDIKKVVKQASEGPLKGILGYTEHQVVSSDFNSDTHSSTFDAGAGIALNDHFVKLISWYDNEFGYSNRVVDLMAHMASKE
UniProt P37231: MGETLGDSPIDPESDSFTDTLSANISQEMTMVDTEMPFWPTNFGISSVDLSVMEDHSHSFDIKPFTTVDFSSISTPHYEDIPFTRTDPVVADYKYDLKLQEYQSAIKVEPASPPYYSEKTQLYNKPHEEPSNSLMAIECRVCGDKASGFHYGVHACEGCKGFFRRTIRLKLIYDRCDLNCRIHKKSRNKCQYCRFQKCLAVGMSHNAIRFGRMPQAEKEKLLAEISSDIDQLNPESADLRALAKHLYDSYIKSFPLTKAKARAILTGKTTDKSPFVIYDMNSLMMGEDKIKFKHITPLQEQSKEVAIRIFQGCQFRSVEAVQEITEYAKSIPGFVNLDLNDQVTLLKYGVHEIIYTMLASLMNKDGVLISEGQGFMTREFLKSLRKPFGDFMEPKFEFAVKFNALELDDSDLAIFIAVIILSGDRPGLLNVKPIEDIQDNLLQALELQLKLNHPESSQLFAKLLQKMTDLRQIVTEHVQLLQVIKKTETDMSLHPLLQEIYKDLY

[2] = molecular target: human Thyroid Receptor alpha (THRa1), THRA (gene 7067) (UniProt P10827); assay: ATG_THRa1_TRANS: Attagene TRANS-FACTORIAL HepG2 Assay for human Thyroid Receptor alpha (THRa1) (AID 2283014)
How it was run: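 Transient HepG2 transfection, NR-Gal4 chimera driving GAL4-UAS reporters; 24 h compound exposure; total RNA, oligo(dT) RT, PCR, fluorescent primer extension, capillary electrophoresis. Upward direction vs DMSO control.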

[3] = TOX21_p53_BLA_p5_viability: Viability Assessment in the Tox21 HCT-116 p53 Agonism Beta-lactamase Assay, Phase 5 (AID 2283600)
How it was run: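 ATP luminescence (CellTiter-Glo, 30 min, RT) served as the viability read-out, with loss of signal indicating cytotoxicity. Compounds in DMSO were pinned at a 217-fold dilution onto 4000 cells/well and incubated 16 h, 37C.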

[4] = ACEA_ER_AUC_viability: ACEA Biosciences xCELLigence Real-Time Cell Analysis on Estrogen Receptor Agonism for Viability (AID 2283782);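 also: hit means loss of impedance signal meaning reduced cell growth or viability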
How it was run: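 Read-out: real-time electrical impedance (RT-CES) area under curve, loss of signal taken as reduced viability, normalized to DMSO baseline. T-47D cells, charcoal-stripped serum medium, compounds up to 100 uM final, continuous exposure, 80 h.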

[5] = ATG_M_06_TRANS: Attagene TRANS-FACTORIAL HepG2 Assay for M06 Transcription Factor (Internal Marker) (AID 2282983); settings: HepG2 Attagene TRANS M06 internal marker reporter;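 as to AC50: potency for rise in reporter mRNA above DMSO baseline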
How it was run: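 Read-out: fluorescent reporter cDNA fragments resolved by capillary electrophoresis after RT-PCR and HpaI cut. Source cells were HepG2 carrying transfected multi-reporter GAL4 constructs, dosed 24 h. Increase over DMSO control analysed.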

[6] = molecular target: human Vitamin D Receptor (VDR), VDR (gene 7421) (UniProt P11473); assay: ATG_VDR_TRANS: Attagene TRANS-FACTORIAL HepG2 Assay for human Vitamin D Receptor (VDR) (AID 2283022)
How it was run: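 RT-PCR/capillary electrophoresis read-out of reporter mRNA induction in transiently transfected HepG2; 24 h dosing; chimeric NR-Gal4 (TRANS format); gain-of-signal fit against DMSO baseline.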

[7] = molecular target: Cellular tumor antigen p53 (Homo sapiens) (UniProt P04637); assay: TOX21_p53_BLA_p5_ratio: Tox21 HCT-116 p53 Agonism Beta-lactamase Assay, Ratio, Phase 5 (AID 2283599)
How it was run: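 HCT-116 p53-bla cells (4000/well) plated 5 h, dosed with compound (217-fold DMSO dilution) for 16 h at 37 C; CCF4-AM substrate 2 h at room temperature. Activity is the 460/530 nm emission ratio (405 nm excitation), fitted in gain-of-signal direction versus DMSO.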

[8] = CCTE_Harrill_HTTr_CellCount_MCF7: CCTE's Cell Proliferation Assessment for the High-Throughput Transcriptomics (HTTr) Platform, Harrill Lab (AID 2284012);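 also: cells exposed to compound for six hours; intended direction is loss of nuclei count meaning fewer cells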
How it was run: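 Cell count served as viability reporter: loss of Hoechst-stained nuclei, counted by high content imaging, marks decreased growth or survival. Exposure was 6 h in MCF-7 cells across eight concentrations, with DMSO as baseline.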

[9] = molecular target: human Peroxisome Proliferator-activated Receptor delta (PPARd), PPARD (gene 5467) (UniProt Q03181); assay: ATG_PPARd_TRANS: Attagene TRANS-FACTORIAL HepG2 Assay for human Peroxisome Proliferator-activated Receptor delta (PPARd) (AID 2283002)
How it was run: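 Read-out: reporter mRNA induction, quantified by fluorescent RT-PCR products resolved by capillary electrophoresis. Human HepG2 liver cells carried transiently transfected Gal4-UAS reporter constructs with chimeric NR-Gal4 fusions. Cells were dosed for 24 h; DMSO served as baseline.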

[10] = molecular target: Retinoic acid receptor RXR-alpha (Homo sapiens) (UniProt P19793); assay: ATG_RXRa_TRANS: Attagene TRANS-FACTORIAL HepG2 Assay for human Retinoid X Receptor alpha (RXRa) (AID 2283012)
How it was run: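 Measures exogenous chimeric NR-GAL4 activity in transfected HepG2 liver cells after 24 h of dosing. Induced reporter mRNA was detected by RT-PCR with capillary electrophoresis, and gain of signal was analysed against DMSO.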

[11] = molecular target: Cellular tumor antigen p53 (Homo sapiens) (UniProt P04637); assay: TOX21_p53_BLA_p2_ratio: Tox21 HCT-116 p53 Agonism Beta-lactamase Assay, Ratio, Phase 2 (AID 2283592)
How it was run: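 Readout: blue/green (460/530 nm) FRET emission ratio after 2 h CCF4-AM loading at room temperature, excitation 405 nm. HCT116 p53 bla cells, 16 h compound exposure at 37C, 5% CO2; agonist direction fitted against DMSO baseline.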

[12] = molecular target: Cellular tumor antigen p53 (Homo sapiens) (UniProt P04637); assay: TOX21_p53_BLA_p3_ratio: Tox21 HCT-116 p53 Agonism Beta-lactamase Assay, Ratio, Phase 3 (AID 2283596)
How it was run: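 Cells were seeded at 4000/well, rested 5 h at 37C, then dosed with DMSO compound solutions (217-fold dilution) for 16 h. CCF4-AM substrate was loaded for 2 h at room temperature, and the 460/530 nm emission ratio was fitted for gain of signal versus DMSO.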

[13] = molecular target: Cellular tumor antigen p53 (Homo sapiens) (UniProt P04637); assay: TOX21_p53_BLA_p4_ratio: Tox21 HCT-116 p53 Agonism Beta-lactamase Assay, Ratio, Phase 4 (AID 2283601)
How it was run: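 HCT-116 p53 beta-lactamase reporter cells (4000/well) preincubated 5 h, then compound (217-fold dilution of DMSO stock) for 16 h at 37C. CCF4-AM substrate added 2 h at room temperature; 460/530 nm emission ratio fitted upward versus DMSO.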

[14] = read-out: organic anion transporter (SLCO1B1), SLCO1B1 (gene 10599); assay: CLD_SLCO1B1_6hr: CellzDirect (CLD) Gene Expression Assay for organic anion transporter (SLCO1B1) at 6 hours (AID 2283668);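 also: active means mRNA induction above DMSO baseline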
How it was run: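 SLCO1B1 mRNA induction measured 6 h after dosing by quantitative nuclease protection with chemiluminescent read-out, in human primary hepatocyte cultures given chemicals at several concentrations (vehicle 0.2% DMSO). Increase over DMSO baseline fitted; morphology-based cytotoxicity annotated yes/no.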

[15] = CLD_ACTIN_24hr: CellzDirect (CLD) Gene Expression Assay for Baseline Control (Actin) at 24 hours (AID 2283670)
How it was run: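 This 24 h qNPA (S1 nuclease protection, chemiluminescence) actin transcript readout in cultured human liver primary cells serves as baseline control. Signal is fitted upward relative to 0.2% DMSO; chemicals tested at multiple concentrations across two donor preparations.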

[16] = read-out: HMG-CoA synthase (HMGCS2), HMGCS2 (gene 3158); assay: CLD_HMGCS2_24hr: CellzDirect (CLD) Gene Expression Assay for HMG-CoA synthase (HMGCS2) at 24 hours (AID 2283691)
How it was run: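 qNPA with S1 nuclease digestion and chemiluminescent detection gave HMGCS2 transcript levels, fitted upward against 0.2% DMSO vehicle. Cultured human hepatocytes (two donors) received fresh compound daily and were harvested at 24 h; phase-contrast morphology flagged cytotoxicity.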

[17] = read-out: Glyceraldehyde-3-phosphate dehydrogenase (Homo sapiens) (UniProt P04406); assay: CLD_GAPDH_48hr: CellzDirect (CLD) Gene Expression Assay for Baseline Control (Glyceraldehyde 3-phosphate dehydrogenase) at 48 hours (AID 2283706)
How it was run: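 GAPDH baseline-control readout: qNPA chemiluminescent mRNA quantitation in human liver primary cells 48 h after daily dosing on two consecutive days, vehicle 0.2% DMSO; gain of signal fitted against DMSO, cytotoxicity flagged by phase-contrast morphology.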

[18] = read-out: organic anion transporter (SLCO1B1), SLCO1B1 (gene 10599); assay: CLD_SLCO1B1_48hr: CellzDirect (CLD) Gene Expression Assay for organic anion transporter (SLCO1B1) at 48 hours (AID 2283707)
How it was run: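 SLCO1B1 transcript quantified by qNPA with chemiluminescent readout after 48 h of once-daily chemical exposure. Cultured human primary hepatocytes came from two donors, with 0.2% DMSO vehicle; positive-direction fitting against DMSO, cytotoxicity flagged by morphology.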

[19] = read-out: HMG-CoA synthase (HMGCS2), HMGCS2 (gene 3158); assay: CLD_HMGCS2_48hr: CellzDirect (CLD) Gene Expression Assay for HMG-CoA synthase (HMGCS2) at 48 hours (AID 2283711)
How it was run: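 mRNA induction read by qNPA chemiluminescence, 48 h after dosing. Cultured primary human liver cells (two donor preparations) received fresh compound daily over two days against 0.2% DMSO vehicle; morphology-based cytotoxicity noted alongside.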

[20] = molecular target: Peroxisome proliferator-activated receptor gamma (Homo sapiens) (UniProt P37231); assay: ATG_PPARg_TRANS: Attagene TRANS-FACTORIAL HepG2 Assay for human Peroxisome Proliferator-activated Receptor-gamma (PPARg) (AID 2283007)
How it was run: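 Endpoint reflects upward reporter mRNA change versus DMSO controls. Setup: transiently transfected HepG2, GAL4-UAS reporters driven by chimeric NR-Gal4, 24 h incubation, RT-PCR with capillary electrophoresis read-out.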

Measured: AC50

CCOP(=S)(OCC)O/N=C(\C#N)c1ccccc1
inconclusive: [1] 367 nM and 100 µM | [2] 100 µM | [3] 86.9 µM and 23 µM | [4] 10.4 µM

O=NN1CCCCCC1
inactive: [5] | [1] | [6]
inconclusive: [7] 72.9 µM | [3] 46.1 µM | [8] 50 µM

C#CC(C)(C)NC(=O)c1cc(Cl)cc(Cl)c1
inactive: [5] | [10] | [11] | [7] | [13]
active: [19] 0.0094 µM
inconclusive: [5] 50 µM | [1] 100 µM | [9] 50 µM | [6] 0.711 µM | [11] 46.1 µM | [12] 46.4 µM | [7] 46.1 µM | [13] 46.1 µM | [14] 0.00322 µM | [15] 20 µM | [16] 20 µM | [17] 6.36 µM | [18] 3.97 µM | [8] 50 µM

COC(=O)N(C(=O)N1CO[C@@]2(C(=O)OC)Cc3cc(Cl)ccc3C2=N1)c1ccc(OC(F)(F)F)cc1
inconclusive: [14] 20 µM | [15] 5.53 µM | [16] 9.1 µM | [17] 20 µM | [18] 14.5 µM | [19] 20 µM
active: [11] 46.3 µM | [13] 37.6 µM | [4] 69.2 µM

CN1COCN(Cc2cnc(Cl)s2)C1=N[N+](=O)[O-]
inconclusive: [9] 50 µM | [12] 46.1 µM | [3] 75 µM | [14] 20 µM | [16] 20 µM | [4] 0.00796 µM | [8] 50 µM
inactive: [10] | [18] | [19]

O=C(O)c1nc(Cl)ccc1Cl
inconclusive: [10] 0.0685 µM | [2] 0.059 µM | [11] 83.4 µM | [12] 85.7 µM | [3] 46 µM | [13] 46 µM and 47.3 µM and 46.1 µM | [14] 3.41 µM | [15] 34.7 µM and 20 µM | [16] 36.2 µM | [17] 31.8 µM and 20 µM | [18] 20 µM | [4] 0.0491 µM | [8] 50 µM
inactive: [10] | [11] | [14] | [16] | [19]

CCOc1cc(C(C)(C)C)ccc1C1COC(c2c(F)cccc2F)=N1 (configuration not stated)
inconclusive: [9] 7.88 µM | [2] 0.0896 µM | [14] 20 µM | [15] 20 µM | [16] 3.46 µM | [17] 20 µM | [19] 1.9 µM | [8] 50 µM
inactive: [1] | [18]

O=C(Nc1ccccc1)Nc1ccnc(Cl)c1
active: [20] 50 µM | [12] 46.1 µM | [13] 41 µM
inactive: [1] | [10] | [3]
inconclusive: [14] 5.66e-05 µM | [15] 3.42 µM | [16] 34.1 µM | [17] 20 µM | [18] 38.3 µM | [19] 33.8 µM

NNC(=S)NN
inconclusive: [9] 100 µM | [6] 100 µM | [7] 47.2 µM | [3] 46.1 µM and 47.2 µM

CC(C)(C)OOC(C)(C)CCC(C)(C)OOC(C)(C)C
inactive: [3]
inconclusive: [1] 25.8 µM | [2] 1.22 µM | [6] 0.00914 µM | [12] 46.1 µM

From PubChem BioAssay (EPA / NIEHS)
